Results deposited as PubChem BioAssay AID602196 (INSERM, 2012)
In all, the deposit lists about 23,000 reagents; below is a random part of them. 455 of them (2%) count as active. 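Active includes both protection and sensitisation; some change values fall well beyond the stated -50 to +50 range.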 Entries without a mark were called inactive. Further read-outs or replicates are left out here. The record does not give: the amount of reagent.

Test: 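Modifiers of cisplatin sensitivity in A549 cells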
Cells: human A549 lung cancer cells
Reagent: siRNA pair against human genes
Duration: 48 h transfection before cisplatin; time from cisplatin to read-out not stated
Conditions: cisplatin at a dose killing half of control-siRNA cells; exact dose and duration not given
Measurement: 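Shift in cisplatin death relative to control siRNA, from -50 (all cells die) to +50 (no cells die); siRNAs harmful on their own scored 0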
Scale: two-siRNA summed score (-2 to +2): higher = both siRNAs protect from cisplatin killing; -2 means both sensitise; mean protection from cisplatin (shift in death): higher = protection from cisplatin killing
Hit rule: 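Each siRNA scores 0 if harmful alone by LDH or WST-1, otherwise +1 if it reduces and -1 if it increases cisplatin killing; a gene is active when both siRNAs agree (sum +2 or -2)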
Calls: active = both siRNAs shift cisplatin killing the same way; inactive = no consistent shift, or siRNA harmful alone

{"gene knocked down":"SPATA16","two-siRNA summed score (-2 to +2)":-1,"mean protection from cisplatin (shift in death) (%)":-13.1}
{"gene knocked down":"PCDHGA10","two-siRNA summed score (-2 to +2)":0,"mean protection from cisplatin (shift in death) (%)":2.5}
{"gene knocked down":"POGK","two-siRNA summed score (-2 to +2)":0,"mean protection from cisplatin (shift in death) (%)":7.1}
{"gene knocked down":"LOC389059","two-siRNA summed score (-2 to +2)":0,"mean protection from cisplatin (shift in death) (%)":4.1}
{"gene knocked down":"CHMP1A","two-siRNA summed score (-2 to +2)":-1,"mean protection from cisplatin (shift in death) (%)":-12.5}
{"gene knocked down":"B3GAT3","two-siRNA summed score (-2 to +2)":0,"mean protection from cisplatin (shift in death) (%)":-7.3}
{"gene knocked down":"LOC440466","two-siRNA summed score (-2 to +2)":0,"mean protection from cisplatin (shift in death) (%)":17.3}
{"gene knocked down":"ADAM18","two-siRNA summed score (-2 to +2)":0,"mean protection from cisplatin (shift in death) (%)":2.1}
{"gene knocked down":"LOC441348","two-siRNA summed score (-2 to +2)":0,"mean protection from cisplatin (shift in death) (%)":10.5}
{"gene knocked down":"CCT5","two-siRNA summed score (-2 to +2)":0,"mean protection from cisplatin (shift in death) (%)":-26.5}
{"gene knocked down":"TMEM177","two-siRNA summed score (-2 to +2)":-1,"mean protection from cisplatin (shift in death) (%)":-1.8}
{"gene knocked down":"DKFZp313P036","two-siRNA summed score (-2 to +2)":0,"mean protection from cisplatin (shift in death) (%)":5.1}
